In PMC6509286:
Construct, isoform or probe ends are uncertain for at least one entry. At least one verdict rests on a figure or table, not on a statement of the authors.

Tested on: MBP-core RAG1 (cRAG1) + MBP-core RAG2 (cRAG2) + HMGB1
Test: EMSA
Settings: Ca2+ (1 mM), EMSA: 25 mM MOPS pH 7.0, 50 mM KOAc, 1 mM DTT, 100 ug/ml BSA, 1 mM Ca2+ (in place of Mg2+), 2 nM probe, ~80 nM RAG, 400 nM HMGB1, 37 C 15 min, 4% gel at 4 C, recombinant protein, protein details: MBP,MBP,none (N-terminal 6xHis removed by TEV), label: 32P

Sequence	binding result (HMGB1, complexes SC1/2, HSC1/2)	binding result (HMGB1, additional slower complex C)
GATCTGGCCTGTCTTACACAGTGGTAGTACTCCACTGTCTGGCTGTACAAAAACCCTGCAG (double strand) [23-RSS]	binds	–
GATCTGGCCTGTCTTACACAGTGCTACAGACTGGAACAAAAACCCTGCAG (double strand) [12-RSS]	binds	–
CTGCAGGGTTTTTGTTCCAGTCTGTAGCACTGTGCACAGTGGTAGTACTCCACTGTCTGGCTGTACAAAAACCCTGCAG (double strand) [SJ (signal joint; SJ1, MBNSJ)]	–	binds
